Consider 47 compounds from article PMC6925144, “A prospective compound screening contest identified broader inhibitors for Sirtuin 1” (Scientific Reports, 2019).

Protein sequences, listed by entry. Tags and fused reporters are not part of them. Residues count along the entry.
UniProt Q96EB6, 2-747 limits assumed: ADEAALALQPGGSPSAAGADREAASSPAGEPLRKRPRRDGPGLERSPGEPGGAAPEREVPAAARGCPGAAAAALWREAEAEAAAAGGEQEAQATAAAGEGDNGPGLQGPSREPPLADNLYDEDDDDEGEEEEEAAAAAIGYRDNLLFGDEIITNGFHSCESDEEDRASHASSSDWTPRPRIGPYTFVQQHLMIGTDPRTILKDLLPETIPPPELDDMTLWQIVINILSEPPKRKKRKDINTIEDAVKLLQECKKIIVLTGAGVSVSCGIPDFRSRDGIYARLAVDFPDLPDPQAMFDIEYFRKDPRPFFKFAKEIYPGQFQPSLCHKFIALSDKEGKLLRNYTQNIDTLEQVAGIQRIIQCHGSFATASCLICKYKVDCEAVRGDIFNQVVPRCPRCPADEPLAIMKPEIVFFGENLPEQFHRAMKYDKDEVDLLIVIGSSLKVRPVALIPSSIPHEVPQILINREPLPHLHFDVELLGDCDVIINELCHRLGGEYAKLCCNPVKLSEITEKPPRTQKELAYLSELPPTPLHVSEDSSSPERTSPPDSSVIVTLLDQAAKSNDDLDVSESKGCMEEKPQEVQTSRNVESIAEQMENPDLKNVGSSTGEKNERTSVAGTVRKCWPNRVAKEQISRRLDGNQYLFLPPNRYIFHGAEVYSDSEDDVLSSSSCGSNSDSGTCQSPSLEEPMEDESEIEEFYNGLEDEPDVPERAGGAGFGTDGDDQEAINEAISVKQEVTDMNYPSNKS

The full ranking holds about 3,200 compounds; the median of “TSA(with NAD+) / Primary screening (TSA) / delta Tm (K)” is about -0.04, and the highest 2% start at about 0.37. This is one part of the list. Peptide text beside a SMILES is read from it.

This test deals with NAD-dependent deacetylase Sirtuin 1 (human, UniProt Q96EB6). The test is described as follows: primary screen, delta tm. More on the design: single well (n = 1, as 'the same TSA'). As to conditions: 10 µM. As to the method:
A total of 3,192 compounds extracted from the proposed lists were first screened by thermal shift assay (TSA), which determined a melting temperature shift (ΔTm) of Sirtuin 1 upon the addition of a test compound at a concentration of 10 µM (n = 1) with primary hit criteria of ΔTm > 0.45 K or ΔTm < −1.5 K. Primary hits (48 compounds) were retested in the same assay at three concentrations (5, 10, 20 µM, n = 4) for hit confirmation and for dose-dependency check. Secondary hits (41 compounds) were checked their selectivity for Sirtuin 1 based on counterscreening on unrelated protein targets (bovine carbonic anhydrase (CA) and recombinant SH2 domain of hABL1 kinase (ABL1)) at three different concentrations (5, 10, 20 µM, n = 4), which yielded 38 hit compounds, hereafter referred to as TSA hits. The TSA screening above was conducted in the absence of NAD+. As noted, the structure of Sirtuin 1 is different in the presence of NAD+ and substrate. The chemical profile of TSA hits found from the different conditions could be different. […] As a result, 39 TSA hits were found.
With `CCS(=O)(=O)NCCC(=O)O`, the “TSA(with NAD+) / Primary screening (TSA) / delta Tm (K)” value was -0.03 K. `COc1ccc(NS(=O)(=O)c2cccs2)cc1S(N)(=O)=O`: the “TSA(with NAD+) / Primary screening (TSA) / delta Tm (K)” value is 0.01 K.

`Cc1nc2ccccc2c(C)c1CC(=O)Nc1ccc(N2CCN(Cc3ccccc3)CC2)cc1`: the “TSA(with NAD+) / Primary screening (TSA) / delta Tm (K)” value is -0.01 K.

`Cc1cc2oc(=O)cc(CN3C(=O)NC4(CCCCC4)C3=O)c2cc1C`: the “TSA(with NAD+) / Primary screening (TSA) / delta Tm (K)” value is -0.18 K. The result for `COc1ccc(-c2noc(CN3CCN(c4ncnc5sc6c(c45)CCC(C)C6)CC3)n2)cc1` (centres unmarked) reads -0.01 K; that for `Cc1ccc(N(C)S(=O)(=O)c2cccc(C(=O)Nc3ccc(C)cc3C)c2)cc1`, -0.13 K; that for `COc1ccc(CN(C(=O)COC(=O)c2ccc(C(N)=O)cc2)C2CC2)cc1`, 0.03 K. In the case of `O=C(COC(=O)CN1C(=O)C2CCCCC2C1=O)Nc1cc(C(F)(F)F)ccc1Cl` (centres unmarked), the “TSA(with NAD+) / Primary screening (TSA) / delta Tm (K)” value is on record as 0.05 K. The value for `O=C1CC(Cc2ccccc2)C(=O)N1` (centres unmarked) was -0.13 K; that for `CC(=O)NCC(=O)NCC(=O)N(C)C` (Ac-Gly-Gly-NMe2) was -0.14 K. The result for `CN(c1cccc(Cl)c1)S(=O)(=O)c1cccc(C(=O)Nc2cccc(C#N)c2)c1` reads 0.45 K. The value for `CC(Oc1ccc2[nH]c3ccccc3c(=O)c2c1)C(=O)NC(=O)NC12CC3CC(CC(C3)C1)C2` (centres unmarked) was 0.29 K; that for `CN(C(=O)Cc1cccc2ccccc12)C1C2CC3CC(C2)CC1C3` (centres unmarked) was -0.28 K; that for `Cc1ccc(N(C)S(=O)(=O)c2cccc(C(=O)Nc3ccc4c(c3)C(=O)N(C)C4=O)c2)cc1` was 0.89 K.

For `Cc1cc(C)c(NCc2cc(=O)n3ccsc3n2)c(Cl)c1`, the “TSA(with NAD+) / Primary screening (TSA) / delta Tm (K)” value is -0.13 K.

In the case of `NC(=O)c1ccc(NC(=O)c2sccc2S(=O)(=O)N2CCCCC2)cc1`, the “TSA(with NAD+) / Primary screening (TSA) / delta Tm (K)” value was -0.23 K. The result for `COc1cccc(-c2nnc(SC3CCCCC3=O)n2-c2ccccc2)c1` (centres unmarked) reads -0.03 K. The value for `C=CCOc1ccc(C(=O)C2=C(O)C(=O)N(CCCN3CCOCC3)C2c2cccs2)cc1` (centres unmarked) was -0.09 K; that for `Cc1cccc(Oc2ccc(NC(=O)c3cncc(Br)c3)cc2)c1` was 0.07 K.

Consider `OCCCNc1ccc2nnc(C(F)(F)F)n2n1`, for which the “TSA(with NAD+) / Primary screening (TSA) / delta Tm (K)” value was -0.09 K. Regarding `Cc1nc2c(cnn2-c2ccc(F)cc2)c(=O)[nH]1`, the “TSA(with NAD+) / Primary screening (TSA) / delta Tm (K)” value is reported as -0.06 K.

On to `NC(=O)C1CCN(c2ncnc3cc(-c4ccc(Cl)cc4)sc23)C1` (centres unmarked), for which the “TSA(with NAD+) / Primary screening (TSA) / delta Tm (K)” value is given as -0.09 K.

Regarding `Cc1ccc2c(COC(=O)C(CCS(C)(=O)=O)NC(=O)c3ccccc3)cc(=O)oc2c1` (centres unmarked), the “TSA(with NAD+) / Primary screening (TSA) / delta Tm (K)” value is -0.13 K. The result for `O=C(CCc1nc2ccccc2o1)N1CCN(C(c2ccc(F)cc2)c2ccc(F)cc2)CC1` reads -0.01 K; that for `O=C1NC(=S)NC(=O)C1=Cc1ccc(-c2ccc(SC(F)F)cc2)o1`, -0.43 K.

Consider `O=C1NC2(CCOc3ccccc32)C(=O)N1Cc1cccc2ccccc12` (centres unmarked), for which the “TSA(with NAD+) / Primary screening (TSA) / delta Tm (K)” value is reported as -0.11 K. The value for `CN(c1ccccc1C(N)=O)S(=O)(=O)c1cccc(C#N)c1` was -0.03 K. `Cc1cc(C(=O)Nc2ccc3c(c2)OC2(CCCC2)O3)c2ccccc2n1`: the “TSA(with NAD+) / Primary screening (TSA) / delta Tm (K)” value is recorded as -0.01 K. `Cc1ccc(CCC(=O)Nc2cc(C(N)=O)ccc2N2CCCCC2)cc1Cl`: the “TSA(with NAD+) / Primary screening (TSA) / delta Tm (K)” value was 0.06 K. The result for `COc1ccc(N(C)S(=O)(=O)c2cccc(C(=O)Nc3ccc(Br)cc3)c2)cc1` reads 1.36 K; that for `Cc1cc(C(=O)COC(=O)C23CC4CC(CC(C4)C2)C3)c(C)n1Cc1ccc2c(c1)OCO2`, -0.11 K; that for `CNS(=O)(=O)NCC(=O)O`, -0.03 K. On to `CCCC(O)CN` (centres unmarked), for which the “TSA(with NAD+) / Primary screening (TSA) / delta Tm (K)” value was -0.15 K. The value for `O=C(Nc1ccc(N2CCN(Cc3ccccc3)CC2)cc1)c1oc2ccccc2c1COc1ccccc1` was 0.09 K. As for `CC(=O)Nc1ccc(S(=O)(=O)N(C)CC(=O)Nc2ccc(C34CC5CC(CC(C5)C3)C4)cc2)cc1`, the “TSA(with NAD+) / Primary screening (TSA) / delta Tm (K)” value came to 0.18 K. The value for `NC(=O)C1CCCC1Nc1nc(C2CC2)ns1` (centres unmarked) was 0.03 K; that for `COc1ccc(OCCC(=O)Nc2c(C(N)=O)n[nH]c2C)cc1` was 0.05 K; that for `CN(Cc1ccc(Cl)s1)c1cc(=O)n2ccccc2n1` was -0.18 K. Turning to `Cc1c(CCC#N)c(Cl)n2c(nc3ccccc32)c1C#N`, the “TSA(with NAD+) / Primary screening (TSA) / delta Tm (K)” value is reported as -0.03 K.

Consider `NCCCCS(=O)(=O)O`, for which the “TSA(with NAD+) / Primary screening (TSA) / delta Tm (K)” value came to 0.01 K. As to `Cn1ncc2c(=O)[nH]c(N3CCC(c4cc5ccccc5[nH]4)CC3)nc21`, the “TSA(with NAD+) / Primary screening (TSA) / delta Tm (K)” value is given as -0.23 K. As for `COc1ccc2nc(C)cc(N3CCN(S(=O)(=O)/C=C/c4ccccc4)CC3)c2c1`, the “TSA(with NAD+) / Primary screening (TSA) / delta Tm (K)” value is -0.02 K. The value for `Cc1ccc(C(=O)CSc2nc3ccsc3c(=O)n2C)s1` was -0.01 K.

As to `CC(C#N)(NC(=O)COC(=O)c1cc(-c2ccc(O)cc2)nc2ccccc12)C1CC1` (centres unmarked), the “TSA(with NAD+) / Primary screening (TSA) / delta Tm (K)” value turned out to be 0.16 K. The result for `O=C(COC(=O)CNC(=O)C12CC3CC(CC(C3)C1)C2)Nc1ccccc1Cc1ccccc1` reads 0.08 K; that for `c1ccc2sc(-c3nc4c5ccccc5ncn4n3)cc2c1`, 0.01 K. In the case of `COc1ccc(C(=O)OC(C)C(=O)Nc2ccc(C(N)=O)cc2)c(OC)c1` (centres unmarked), the “TSA(with NAD+) / Primary screening (TSA) / delta Tm (K)” value was -0.01 K.
